Laboratory results from the supplement of paper PMC10849652.
The list shows a part of the results.

Chains of the proteins cited; added tags and fusions are not shown. Lines headed by an entry give the natural chain unless they say otherwise; changes in a name come on top.
UniProt Q8TEH3: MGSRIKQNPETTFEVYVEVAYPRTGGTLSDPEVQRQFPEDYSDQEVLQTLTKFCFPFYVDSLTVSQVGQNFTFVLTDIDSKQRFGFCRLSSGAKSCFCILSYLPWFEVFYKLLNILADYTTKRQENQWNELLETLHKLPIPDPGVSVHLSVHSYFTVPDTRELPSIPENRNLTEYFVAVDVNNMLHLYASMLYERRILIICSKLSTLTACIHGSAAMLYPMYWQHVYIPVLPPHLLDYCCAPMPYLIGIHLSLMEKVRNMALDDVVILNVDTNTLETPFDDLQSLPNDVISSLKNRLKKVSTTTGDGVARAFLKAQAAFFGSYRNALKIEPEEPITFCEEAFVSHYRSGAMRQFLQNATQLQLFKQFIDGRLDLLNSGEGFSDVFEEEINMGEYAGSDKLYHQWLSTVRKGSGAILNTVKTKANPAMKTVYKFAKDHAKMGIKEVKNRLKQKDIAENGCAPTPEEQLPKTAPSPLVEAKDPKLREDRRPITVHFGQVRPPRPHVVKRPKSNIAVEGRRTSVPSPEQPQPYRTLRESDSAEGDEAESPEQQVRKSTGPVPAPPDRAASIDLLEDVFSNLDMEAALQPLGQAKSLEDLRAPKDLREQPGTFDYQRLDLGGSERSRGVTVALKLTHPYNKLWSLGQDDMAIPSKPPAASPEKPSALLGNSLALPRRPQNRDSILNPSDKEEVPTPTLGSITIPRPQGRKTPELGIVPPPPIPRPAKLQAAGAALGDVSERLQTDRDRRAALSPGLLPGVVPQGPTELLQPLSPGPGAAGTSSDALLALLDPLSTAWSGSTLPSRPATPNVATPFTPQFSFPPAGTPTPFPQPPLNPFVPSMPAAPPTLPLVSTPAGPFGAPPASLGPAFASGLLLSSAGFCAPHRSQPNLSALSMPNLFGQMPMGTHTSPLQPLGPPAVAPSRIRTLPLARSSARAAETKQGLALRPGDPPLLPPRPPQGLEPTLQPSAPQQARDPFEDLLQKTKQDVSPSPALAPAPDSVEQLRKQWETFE
UniProt Q9H0S4: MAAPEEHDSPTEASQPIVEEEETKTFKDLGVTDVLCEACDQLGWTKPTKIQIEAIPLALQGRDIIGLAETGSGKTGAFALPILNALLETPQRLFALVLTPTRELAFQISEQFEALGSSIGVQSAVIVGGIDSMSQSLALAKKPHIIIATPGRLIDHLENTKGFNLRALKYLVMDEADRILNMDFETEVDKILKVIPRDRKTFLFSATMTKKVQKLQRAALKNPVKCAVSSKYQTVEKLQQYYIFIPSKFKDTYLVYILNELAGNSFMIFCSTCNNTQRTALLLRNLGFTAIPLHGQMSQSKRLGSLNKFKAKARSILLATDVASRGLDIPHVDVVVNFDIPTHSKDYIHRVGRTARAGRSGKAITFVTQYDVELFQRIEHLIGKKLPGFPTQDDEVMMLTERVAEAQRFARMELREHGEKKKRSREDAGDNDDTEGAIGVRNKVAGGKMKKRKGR
UniProt Q6ZN54: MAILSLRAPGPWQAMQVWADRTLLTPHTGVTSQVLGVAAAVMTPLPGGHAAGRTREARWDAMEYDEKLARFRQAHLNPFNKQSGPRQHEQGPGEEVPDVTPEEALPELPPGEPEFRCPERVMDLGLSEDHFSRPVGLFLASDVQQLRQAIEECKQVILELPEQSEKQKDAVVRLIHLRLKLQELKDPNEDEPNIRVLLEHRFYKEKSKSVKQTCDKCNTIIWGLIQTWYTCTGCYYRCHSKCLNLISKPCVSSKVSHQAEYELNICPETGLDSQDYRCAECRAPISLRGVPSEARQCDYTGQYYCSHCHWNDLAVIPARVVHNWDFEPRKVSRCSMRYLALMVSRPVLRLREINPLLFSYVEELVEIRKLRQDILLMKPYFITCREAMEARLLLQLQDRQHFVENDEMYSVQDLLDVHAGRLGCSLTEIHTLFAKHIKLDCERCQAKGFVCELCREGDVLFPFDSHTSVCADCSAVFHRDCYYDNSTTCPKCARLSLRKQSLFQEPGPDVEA
UniProt Q6VVX0: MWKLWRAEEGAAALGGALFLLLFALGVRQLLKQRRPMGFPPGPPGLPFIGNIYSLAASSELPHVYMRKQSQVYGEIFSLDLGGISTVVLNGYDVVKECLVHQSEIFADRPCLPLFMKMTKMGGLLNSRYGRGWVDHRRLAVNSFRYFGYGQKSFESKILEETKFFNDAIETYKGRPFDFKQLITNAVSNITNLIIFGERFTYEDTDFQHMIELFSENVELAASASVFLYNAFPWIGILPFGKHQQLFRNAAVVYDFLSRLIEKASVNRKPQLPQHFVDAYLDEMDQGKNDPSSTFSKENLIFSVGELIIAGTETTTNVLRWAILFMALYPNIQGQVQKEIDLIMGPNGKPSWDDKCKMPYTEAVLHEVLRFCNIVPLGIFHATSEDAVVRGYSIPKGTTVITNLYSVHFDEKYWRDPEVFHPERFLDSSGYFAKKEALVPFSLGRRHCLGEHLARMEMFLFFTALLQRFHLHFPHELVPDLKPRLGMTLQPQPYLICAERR
UniProt O75398: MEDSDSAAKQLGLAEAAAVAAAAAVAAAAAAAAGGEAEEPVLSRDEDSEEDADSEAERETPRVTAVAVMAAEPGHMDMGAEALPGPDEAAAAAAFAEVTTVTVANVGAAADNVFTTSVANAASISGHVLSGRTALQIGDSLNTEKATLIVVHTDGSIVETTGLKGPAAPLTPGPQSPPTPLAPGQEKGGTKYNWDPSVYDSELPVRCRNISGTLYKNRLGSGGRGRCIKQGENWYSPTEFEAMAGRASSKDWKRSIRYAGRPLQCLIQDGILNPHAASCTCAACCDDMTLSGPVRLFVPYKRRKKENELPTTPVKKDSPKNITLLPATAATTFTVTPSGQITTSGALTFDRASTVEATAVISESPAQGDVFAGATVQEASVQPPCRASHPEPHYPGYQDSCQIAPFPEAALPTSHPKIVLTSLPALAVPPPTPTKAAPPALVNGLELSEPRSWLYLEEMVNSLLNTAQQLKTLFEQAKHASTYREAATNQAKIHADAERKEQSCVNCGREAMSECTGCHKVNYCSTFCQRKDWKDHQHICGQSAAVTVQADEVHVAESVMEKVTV
UniProt Q9UIK4: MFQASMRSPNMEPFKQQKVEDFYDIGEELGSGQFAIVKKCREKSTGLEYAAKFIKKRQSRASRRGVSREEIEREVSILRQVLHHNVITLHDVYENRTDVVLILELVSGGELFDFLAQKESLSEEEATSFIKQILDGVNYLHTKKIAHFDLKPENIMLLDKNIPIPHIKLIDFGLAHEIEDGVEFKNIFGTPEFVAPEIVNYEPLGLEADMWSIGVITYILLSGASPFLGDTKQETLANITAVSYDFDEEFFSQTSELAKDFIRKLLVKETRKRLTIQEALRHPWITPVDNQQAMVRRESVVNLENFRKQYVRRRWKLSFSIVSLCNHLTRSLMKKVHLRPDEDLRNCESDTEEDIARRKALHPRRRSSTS
UniProt Q9NUU7: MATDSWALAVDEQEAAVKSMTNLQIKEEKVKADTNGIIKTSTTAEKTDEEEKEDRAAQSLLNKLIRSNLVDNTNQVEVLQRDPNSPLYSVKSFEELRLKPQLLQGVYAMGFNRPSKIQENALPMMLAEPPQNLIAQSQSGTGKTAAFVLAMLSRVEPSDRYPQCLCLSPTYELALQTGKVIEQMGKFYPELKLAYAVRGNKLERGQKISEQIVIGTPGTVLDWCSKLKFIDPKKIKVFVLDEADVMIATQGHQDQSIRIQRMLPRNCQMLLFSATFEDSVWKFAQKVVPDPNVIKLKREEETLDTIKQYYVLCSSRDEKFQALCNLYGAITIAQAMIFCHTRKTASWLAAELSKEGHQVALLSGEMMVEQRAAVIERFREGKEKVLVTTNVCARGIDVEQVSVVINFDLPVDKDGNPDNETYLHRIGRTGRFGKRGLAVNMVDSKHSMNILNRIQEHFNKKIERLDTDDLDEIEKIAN
UniProt Q5H9S7: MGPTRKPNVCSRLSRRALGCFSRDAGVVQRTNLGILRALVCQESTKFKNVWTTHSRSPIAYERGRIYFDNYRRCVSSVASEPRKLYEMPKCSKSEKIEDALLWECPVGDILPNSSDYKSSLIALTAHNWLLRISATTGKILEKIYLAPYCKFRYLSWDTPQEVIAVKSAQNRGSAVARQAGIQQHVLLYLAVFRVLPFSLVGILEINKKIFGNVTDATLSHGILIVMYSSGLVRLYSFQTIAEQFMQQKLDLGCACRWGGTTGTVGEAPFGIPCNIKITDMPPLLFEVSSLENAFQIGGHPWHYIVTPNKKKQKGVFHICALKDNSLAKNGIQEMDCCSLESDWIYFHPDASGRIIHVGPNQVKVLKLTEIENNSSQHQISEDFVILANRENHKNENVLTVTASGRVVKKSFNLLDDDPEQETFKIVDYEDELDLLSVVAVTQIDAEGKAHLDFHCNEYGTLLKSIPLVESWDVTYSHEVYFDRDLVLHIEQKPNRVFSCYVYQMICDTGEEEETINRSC
UniProt P35638, whole entry, looked up: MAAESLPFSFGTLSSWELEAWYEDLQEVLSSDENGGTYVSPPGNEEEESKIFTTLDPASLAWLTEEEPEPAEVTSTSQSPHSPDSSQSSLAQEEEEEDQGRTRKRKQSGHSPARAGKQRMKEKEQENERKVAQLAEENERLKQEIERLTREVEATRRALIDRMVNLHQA
UniProt Q8N8Z6: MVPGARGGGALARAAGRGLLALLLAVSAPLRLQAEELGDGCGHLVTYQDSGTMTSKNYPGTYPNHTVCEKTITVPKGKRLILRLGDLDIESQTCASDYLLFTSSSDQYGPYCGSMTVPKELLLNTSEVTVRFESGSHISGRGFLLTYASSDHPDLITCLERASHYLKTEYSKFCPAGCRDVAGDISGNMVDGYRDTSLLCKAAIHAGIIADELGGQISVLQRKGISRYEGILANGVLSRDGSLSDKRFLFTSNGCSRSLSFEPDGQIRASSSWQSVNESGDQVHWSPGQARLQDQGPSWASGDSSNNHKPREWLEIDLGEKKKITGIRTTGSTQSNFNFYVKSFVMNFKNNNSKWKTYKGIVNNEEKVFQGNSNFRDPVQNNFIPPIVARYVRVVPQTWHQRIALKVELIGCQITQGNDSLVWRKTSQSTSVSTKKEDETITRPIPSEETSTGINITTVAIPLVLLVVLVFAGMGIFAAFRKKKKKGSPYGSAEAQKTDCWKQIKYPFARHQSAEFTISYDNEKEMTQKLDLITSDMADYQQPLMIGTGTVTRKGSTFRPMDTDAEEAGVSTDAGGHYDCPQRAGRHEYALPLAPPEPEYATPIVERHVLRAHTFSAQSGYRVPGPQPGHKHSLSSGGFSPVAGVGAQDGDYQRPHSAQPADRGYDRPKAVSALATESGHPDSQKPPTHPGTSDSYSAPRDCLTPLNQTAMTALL
UniProt Q96QD5: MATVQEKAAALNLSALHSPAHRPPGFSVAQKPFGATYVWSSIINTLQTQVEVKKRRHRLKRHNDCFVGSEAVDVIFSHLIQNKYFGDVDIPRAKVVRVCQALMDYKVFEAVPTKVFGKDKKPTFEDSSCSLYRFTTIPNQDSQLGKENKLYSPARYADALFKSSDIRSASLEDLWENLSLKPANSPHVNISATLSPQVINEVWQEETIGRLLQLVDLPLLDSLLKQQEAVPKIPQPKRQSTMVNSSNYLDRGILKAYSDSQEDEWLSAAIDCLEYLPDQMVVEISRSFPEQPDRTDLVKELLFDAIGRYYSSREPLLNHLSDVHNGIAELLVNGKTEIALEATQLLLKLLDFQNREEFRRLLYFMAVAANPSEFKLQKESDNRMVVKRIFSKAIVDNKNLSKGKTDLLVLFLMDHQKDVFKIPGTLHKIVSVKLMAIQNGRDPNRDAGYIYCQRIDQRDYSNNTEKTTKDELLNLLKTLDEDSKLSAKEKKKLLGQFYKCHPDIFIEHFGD
UniProt Q8WVC6: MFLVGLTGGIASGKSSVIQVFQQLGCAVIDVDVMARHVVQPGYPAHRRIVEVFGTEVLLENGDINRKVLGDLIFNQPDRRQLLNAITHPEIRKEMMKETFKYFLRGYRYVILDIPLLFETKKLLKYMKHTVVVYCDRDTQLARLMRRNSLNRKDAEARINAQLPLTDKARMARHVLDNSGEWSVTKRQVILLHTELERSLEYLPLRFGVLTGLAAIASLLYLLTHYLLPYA
UniProt Q7L5Y6, whole entry, looked up: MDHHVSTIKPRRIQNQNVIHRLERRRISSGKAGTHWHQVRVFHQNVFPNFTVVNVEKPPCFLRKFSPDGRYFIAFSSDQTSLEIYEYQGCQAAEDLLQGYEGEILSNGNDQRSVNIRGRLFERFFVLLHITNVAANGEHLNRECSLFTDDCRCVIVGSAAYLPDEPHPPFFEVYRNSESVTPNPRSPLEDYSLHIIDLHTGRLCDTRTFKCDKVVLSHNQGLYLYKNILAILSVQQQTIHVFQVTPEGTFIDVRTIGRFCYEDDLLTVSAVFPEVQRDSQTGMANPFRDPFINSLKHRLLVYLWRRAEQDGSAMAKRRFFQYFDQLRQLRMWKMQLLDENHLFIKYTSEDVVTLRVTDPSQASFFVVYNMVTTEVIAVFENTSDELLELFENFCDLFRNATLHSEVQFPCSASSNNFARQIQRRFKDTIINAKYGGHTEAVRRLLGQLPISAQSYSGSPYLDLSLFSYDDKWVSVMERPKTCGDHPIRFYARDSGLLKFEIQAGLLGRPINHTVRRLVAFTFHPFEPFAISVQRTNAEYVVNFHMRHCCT

Key:
Assay in all cases: log2 fold change, soluble protein after heating vs DMSO (PISA); higher = thermal stabilisation; K562 lysate, 10 uM; active = over 0.2 and 3.5 SD of the protein, either way, in both replicates (recomputed)
ibrutinib = compound: C=CC(=O)N1CCC[C@@H](n2nc(-c3ccc(Oc4ccccc4)cc3)c3c(N)ncnc32)C1 [ibrutinib]
How it was run: (§1)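 Following dounce homogenisation of K562 pellets in PBS pH 7.4 with 1 mM MgCl2, crude extract at 1 mg/mL protein was incubated for 30 min with 10 μM compound. Aliquots were then heated for 3 min over 48°C-58°C and pooled, NP-40 was added to 0.5% at 4°C, and soluble protein was recovered as the supernatant at 21,000xg for 90 min. Channel-sum-equalised TMTpro 16plex LC-MS/MS quantified this protein. Each value, from duplicates, is a log-two fold change in thermal stability relative to solvent controls.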

[1] = compound: CC(=O)c1cnc2ccc(-c3cc(Cl)c(O)c(Cl)c3)nc2c1N[C@H]1CC[C@H](CN(C)C)CC1
How it was run: as §1

ralimetinib = compound: CC(C)(C)Cn1c(N)nc2ccc(-c3[nH]c(C(C)(C)C)nc3-c3ccc(F)cc3)nc21 [ralimetinib]
How it was run: as §1

[2] = compound: CC(C)(O)CC(=O)NCCn1ccc2ncnc(Nc3ccc(Oc4cccc(C(F)(F)F)c4)c(Cl)c3)c21
How it was run: as §1

[3] = compound: CC(C)C1=C2N=C(C=C(N2N=C1)NCC3=CC=CC=C3)NCCCCCCN
How it was run: as §1

[4] = compound: CC1=C(C(CC(=O)N1)C2=CC=C(C=C2)C(F)(F)F)C(=O)NC3=C(C=C4C(=C3)C=NN4)F
How it was run: as §1

[5] = compound: CC1=C(C2=C(C=C1)C(=O)C3=CC=CC=C3N2CCCN)C
How it was run: as §1

[6] = compound: CC1=C(C=C(C=C1)NC(=O)C2=CC(=CC=C2)C(C)(C)C#N)NC3=CC4=C(C=C3)N=CN(C4=O)C
How it was run: as §1

[7] = compound: CC1=C(C=C(C=C1)NC(=O)C2=CC(=CC=C2)N(C)C)NC(=O)C3=CC=C(C=C3)O
How it was run: as §1

[8] = compound: CC1=CC=C(C=C1)SC2=C3C=C(SC3=CN=C2)C(=O)N
How it was run: as §1

Measured: log2 fold change

DENND1A isoform 6 (UniProt Q8TEH3)
inactive: ibrutinib 0.068 | [1] 0.104 | ralimetinib -0.087 | [2] 0.057 | [3] 0.053 | [4] 0.024 | [5] -0.016 | [6] -0.102 | [7] 0.061 | [8] -0.11

DEPDC5 (UniProt O75140)
inactive: ibrutinib 0.096 | [3] 0.109 | [4] -0.004

DBNDD1 isoform 3 (UniProt Q9H9R9)
inactive: [1] 0.052 | ralimetinib -0.016 | [2] -0.093 | [3] 0.013 | [4] 0.161 | [5] 0.195 | [6] 0.025 | [7] 0.041 | [8] -0.048

Looked up one by one from the list above (two):
DENND1A isoform 6 (UniProt Q8TEH3)
inactive: ibrutinib 0.068 | [1] 0.104 | ralimetinib -0.087 | [2] 0.057 | [3] 0.053 | [4] 0.024 | [5] -0.016 | [6] -0.102 | [7] 0.061 | [8] -0.11

DBNDD1 isoform 3 (UniProt Q9H9R9)
inactive: [1] 0.052 | ralimetinib -0.016 | [2] -0.093 | [3] 0.013 | [4] 0.161 | [5] 0.195 | [6] 0.025 | [7] 0.041 | [8] -0.048

Following part:

DCTN1 isoform 4 (UniProt Q14203)
inactive: [1] 0.089 | ralimetinib 0.114 | [2] -0.076 | [3] 0.1 | [4] -0.074 | [5] -0.11 | [6] 0.044 | [7] 0.036 | [8] -0.029

DDX10 (UniProt Q13206)
inactive: ibrutinib 0.024 | [1] 0.1 | ralimetinib 0.131 | [2] 0.059 | [3] -0.054 | [4] -0.06 | [5] -0.096 | [6] -0.15 | [7] 0.023 | [8] 0.171

CYP4V2 (UniProt Q6ZWL3)
inactive: ibrutinib 0.157 | [1] 0.129 | ralimetinib 0.058 | [2] -0.095 | [3] -0.004 | [5] -0.022 | [6] 0.02 | [7] 0.015 | [8] 0.015

DDX47 (UniProt Q9H0S4)
inactive: ibrutinib -0.002 | [1] -0.019 | ralimetinib 0.008 | [2] -0.029 | [3] 0.069 | [4] -0.005 | [5] -0.037 | [6] -0.021 | [7] 0 | [8] -0.002

DEF8 (UniProt Q6ZN54)
inactive: ibrutinib 0.083 | [3] 0 | [5] 0.046 | [6] 0.053

DCUN1D3 (UniProt Q8IWE4)
inactive: ibrutinib 0.01 | [4] -0.065 | [5] -0.009

DDX39B (UniProt H0Y400)
inactive: [1] 0.001 | [8] -0.01

DDIT4 (UniProt Q9NX09)
inactive: [6] 0.102

DALRD3 (UniProt Q5D0E6)
inactive: [1] 0.028 | [3] -0.024 | [8] 0.037

CYTH3 (UniProt O43739)
inactive: [1] 0.043 | ralimetinib -0.192 | [2] 0.095 | [7] 0.215 | [8] -0.041

CYP2R1 (UniProt Q6VVX0)
inactive: [1] -0.014 | ralimetinib 0.111 | [2] -0.017 | [3] -0.03 | [4] -0.084 | [5] 0.046 | [7] -0.058 | [8] 0.017

DDX39B (UniProt F6R6M7)
inactive: [4] 0.058

DEAF1 (UniProt O75398)
inactive: [5] -0.25

DENND5A (UniProt Q6IQ26)
inactive: [5] 0.048 | [6] 0.027

DAZAP1 (UniProt K7EQ02)
inactive: [4] 0.033

DDX11 (UniProt Q96FC9)
inactive: ralimetinib 0.083 | [2] 0.039 | [3] -0.176 | [4] 0.034 | [5] -0.063 | [6] -0.031 | [7] 0.044

CYP4F11 (UniProt Q9HBI6)
inactive: ralimetinib 0.203 | [2] 0.227 | [5] 0.895 | [7] 0.199

DAPK2 isoform 2 (UniProt Q9UIK4)
inactive: [1] 0.339 | ralimetinib -0.135 | [2] -0.287 | [3] -0.056 | [7] -0.005 | [8] -0.098

DCBLD2 isoform 2 (UniProt Q96PD2)
inactive: [1] -0.091 | ralimetinib 0.119 | [2] -0.131 | [5] 0.117 | [7] 0.366 | [8] 0.173

DDAH1 (UniProt O94760)
inactive: [1] -0.016 | ralimetinib -0.037 | [2] -0.045 | [3] -0.001 | [6] 0.137 | [7] -0.005 | [8] -0.04
active: [5] -0.441

DDX19A isoform 2 (UniProt Q9NUU7)
inactive: [6] 0.365

DCAF17 (UniProt Q5H9S7)
inactive: [1] -0.106 | [4] 0.101 | [8] 0.042

DDB1 isoform 2 (UniProt Q16531)
inactive: [1] -0.327 | [8] -0.104

DDIT3 isoform 2 (UniProt P35638)
inactive: [4] 0.069 | [6] 0.135

DDX51 (UniProt Q8N8A6)
inactive: [1] 0.016 | ralimetinib 0.057 | [2] -0.046 | [3] 0.058 | [4] 0.074 | [5] 0.061 | [6] 0.047 | [7] 0.044 | [8] -0.015

DAZAP2 (UniProt Q15038)
inactive: [3] 0.007

DCLRE1C (UniProt Q96SD1)
inactive: [1] 0.124 | ralimetinib -0.034 | [2] -0.068 | [6] 0.073 | [7] 0.126 | [8] -0.133

CYP2S1 isoform 2 (UniProt Q96SQ9)
inactive: [1] 0.146 | ralimetinib 0.048 | [2] 0 | [3] 0.061 | [5] -0.084 | [6] -0.028 | [7] 0.07 | [8] -0.229

DCBLD1 (UniProt Q8N8Z6)
inactive: [1] 0.079 | [5] 0.095 | [8] -0.066

DAPK1 isoform 3 (UniProt P53355)
inactive: [1] 0.35 | ralimetinib 0.041 | [2] 0 | [3] -0.077 | [4] 0.138 | [5] 0.017 | [6] -0.151 | [7] -0.026 | [8] -0.094

DEPDC1B (UniProt Q8WUY9)
inactive: ralimetinib 0.133 | [2] -0.125 | [4] 0.247 | [5] 0.433 | [7] -0.017

DCAF5 (UniProt Q96JK2)
inactive: [5] -0.157 | [6] -0.02

DAPK3 (UniProt O43293)
inactive: [1] 0.546 | [8] 0.072

CYREN isoform 4 (UniProt Q9BWK5)
inactive: ralimetinib -0.009 | [2] -0.048 | [3] -0.164 | [4] -0.099 | [5] -0.123 | [6] 0.072 | [7] 0.008

DEPDC7 (UniProt Q96QD5)
inactive: [4] -0.162

DCAKD (UniProt Q8WVC6)
inactive: ralimetinib 0.076 | [2] -0.097 | [4] -0.31 | [7] 0.037

DDX60L (UniProt Q5H9U9)
inactive: [1] 0.066 | [5] -0.073 | [8] 0

DET1 isoform 2 (UniProt Q7L5Y6)
inactive: [1] -0.036 | ralimetinib 0.131 | [2] 0.092 | [3] -0.045 | [6] 0.065 | [7] -0.15 | [8] 0.217

DCTD (UniProt D6RAD7)
inactive: [4] 0.005
